Patent US20150337042A1 (AbbVie / Abbott, published 2015)
No constants are given. Whether binding was seen depends on the method and setting. Some results given as binding are weak or reduced against the parent protein; the word gives no strength.

Key:
[1] = target: wild type human EGFR on cells (A431, NHEK, SCC-15, H292) (human) (UniProt P00533); test: FACS on normal human epidermal keratinocytes (NHEK)
[2] = target: EGFRvIII on U87MG cells (human) (UniProt P00533); test: competition FACS on U87MG cells expressing EGFRvIII, competitor FITC-labelled Ab1
[3] = target: wild type human EGFR on cells (A431, NHEK, SCC-15, H292) (human) (UniProt P00533); test: FACS binding to normal human epidermal keratinocytes (NHEK), AlexaFluor 488 secondary antibody
[4] = target: EGFRvIII on U87MG cells (human) (UniProt P00533); test: competition FACS on U87MG de2-7 cells expressing EGFRvIII; competitor Ab1-FITC at 100 nM
[5] = target: wild type human EGFR on cells (A431, NHEK, SCC-15, H292) (human) (UniProt P00533); test: summing-up sentence of the example; binding compared with Ab1, method not given

Measured: binding

B1: Antibody P (AbP) (antibody, V domains shown)
VH: EVQLQESGPGLVKPSQTLSLTCTVSGYSISHDFAWNWIRQPPGKGLEWMGYISYSGNTRYQPSLKSRITISRDTSKNQFFLKLNSVTAADTATYYCVTASWGLPWWGQGTLVTVSS
VL: DIQMTQSPSSMSVSVGDRVTITCHSSQDINMNVGWLQQKPGKSFKGLIYHGAILDDGVPSRFSGSGSGTDYTLTISSLQPEDFATYYCVQYAEFPWTFGGGTKLEIK
notes: Full length IgG1
binds: [1] | [2] | [3] | [4] | [5]
